# The other results are listed elsewhere or left out. The main result of the screen is listed elsewhere. These columns were measured beside it and carry no call. Compounds called inactive in the main read-out are mostly missing here. Potencies come from curve fits of mixed quality, noted in brackets.
# Assay: qHTS Assay to Find Inhibitors of Chronic Active B-Cell Receptor Signaling
# Conditions: ABC-DLBCL IkBa-CBG/CBR reporter, luminescence ratio (green luciferase fused to IkBa over red control in TMD8 lymphoma cells), 4 h
# Summary of the method: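 TMD8 human ABC-DLBCL cells with doxycycline-inducible IκBα–green luciferase fusion and unfused red luciferase, in 0.5% FBS medium; compounds up to 46 uM, 4 h at 37C. Green/red luminescence ratio, filter-overlap corrected, fitted to concentration-response curves.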
# [1] = measured here: CBR red luminescence, cell number
# [2] = measured here: IkBa-CBG green luminescence
SMILES,AC50 [1],AC50 [2]
Nc1ncnc2c1ncn2[C@@H]1O[C@H](CNCc2ccccc2OCc2ccc(Cl)cc2Cl)[C@@H](O)[C@H]1O,"29.1 µM [falling, single point]",
COc1ccccc1/C=C/C(=O)Nc1ccc(N2CCOCC2)cc1,"1.58 µM [falling, full curve, poor fit]",
COC(=O)c1ccc(N=NNc2ccccc2)cc1,"10.3 µM [falling, partial curve, poor fit]",
O=[N+]([O-])c1ccc(O)c(C=Nc2ccc3c(c2)OCCO3)c1,"8.2 µM [falling, partial curve]",
NC(=O)CCn1c(C(=O)c2cc(Cl)c(N)c(Cl)c2)c2ccccc2[n+]1[O-],"3.98 µM [rising, partial curve, poor fit]",
CCOC(=O)c1csc(-c2snnc2C)n1,"12.6 µM [rising, partial curve]",
Cc1cccc(N2C(=O)CS/C2=N\NC(=O)c2ccc(Cl)cc2)c1C,"1.84 µM [falling, full curve, poor fit]",
COc1cccc(C(=O)NNC(=O)/C=C/c2ccccc2)c1,"0.891 µM [falling, full curve]",
COc1ccc(CCn2c(C(C)C)nc3oc4ccccc4c(=O)c3c2=O)cc1,"11.2 µM [falling, partial curve, poor fit]",
CC(=O)Cn1ncc(N2CCOCC2)cc1=O,"7.94 µM [falling, partial curve, poor fit]",
CCn1c2ccccc2c2cc(NC(=O)c3ccccc3-c3ccccc3C(=O)O)ccc21,"31.6 µM [rising, single point]","35.5 µM [falling, partial curve, poor fit]"
CSCCC(NC(=O)c1ccco1)C(=O)NCc1ccc(F)cc1 (stereo unspecified),"6.51 µM [falling, single point]",
COc1cc2sc(-c3ccc(S(C)(=O)=O)cc3)c(C#CCO)c2cc1OC,"29.1 µM [rising, single point]","16.4 µM [falling, partial curve]"
CC(=O)c1ccc(Nc2cc(C)nc3c(C)cccc23)cc1,"35.5 µM [falling, single point]","17.8 µM [rising, single point]"
Cc1cc(F)ccc1S(=O)(=O)NCC(c1cccnc1)N1CCc2ccccc21 (stereo unspecified),"8.91 µM [falling, partial curve]",
CCOc1ccccc1NC(=O)CSC1=NN2CCCC(=O)N=C2S1,"8.91 µM [falling, partial curve, poor fit]",
COCC(=O)Nc1cccc2ccccc12,"1.84 µM [falling, full curve, poor fit]",
COc1ccc(S(=O)(=O)NNC(=O)c2cc3cc4ccccc4nc3s2)cc1,"10.3 µM [falling, partial curve]","9.2 µM [rising, partial curve, poor fit]"
COc1ccc(C2CC(c3cccc(Br)c3)=NN2c2ccc(S(N)(=O)=O)cc2)cc1 (stereo unspecified),"4.11 µM [rising, single point]",
O=C(NC(=S)Nc1nc(-c2ccc([N+](=O)[O-])cc2)cs1)c1ccco1,"0.251 µM [rising, full curve, poor fit]",

# Rewritten tab-delimited: entries from further up.
SMILES	AC50 [1]	AC50 [2]
CCOC(=O)c1csc(-c2snnc2C)n1	12.6 µM [rising, partial curve]	
COc1ccc(CCn2c(C(C)C)nc3oc4ccccc4c(=O)c3c2=O)cc1	11.2 µM [falling, partial curve, poor fit]	

# (next part)

SMILES,AC50 [1],AC50 [2]
S=C(Nc1ccc(Cl)c(Cl)c1)N1CCOCC1,"29.1 µM [rising, single point]",
COc1cccc(C(C)NC(=O)Nc2cccc(C(F)(F)F)c2)c1 (stereo unspecified),"12.6 µM [falling, partial curve, poor fit]",
O=C(O)c1cccc(-n2c(/C=C/c3ccccc3)nc3ccccc3c2=O)c1,"2.24 µM [falling, full curve, poor fit]",
Cc1ccc(S(=O)(=O)Nc2cc3c4c(c2)CCN4C(=O)CC3)cc1,"29.1 µM [rising, single point]","18.4 µM [falling, single point]"
Cc1ccc(S(=O)(=O)NNC(=O)c2cc3cc4ccccc4nc3s2)cc1,"12.6 µM [falling, single point]",
Oc1[nH]c2ccc(Br)cc2c1N=NC(=S)N1CCOCC1,"5.62 µM [rising, single point]","0.562 µM [falling, full curve, poor fit]"
CNCCCCOc1ccccc1-c1ccccc1,"16.4 µM [falling, single point]",
CCCCCCNc1cc(C)oc(=O)c1C(C)=O,"14.6 µM [rising, partial curve, poor fit]",
Cc1ccc(C(=O)Nc2ccc(O)cc2C(=O)O)cc1,"1.16 µM [falling, full curve]",
CN(Cc1ccccc1Cl)C(=O)CCNC(=O)c1ccco1,"0.0164 µM [falling, full curve, poor fit]",
Cc1cc(C)cc(Oc2ccccc2C=O)c1,"16.4 µM [rising, single point]",
Cc1onc(-c2ccccc2)c1C(=O)OCC(=O)NC(C)c1ccc(Cl)cc1 (stereo unspecified),"13 µM [rising, partial curve, poor fit]",
C=C(C)CN(CC)c1nc(N)c(C#N)c(CC#N)c1C#N,"10 µM [falling, partial curve]",
Cc1ccc(S(=O)(=O)NCc2ccc(C(=O)N3CCc4ccccc4C3)cc2)cc1,"2.91 µM [rising, single point]",
O=C(NCc1ccccc1)C1=C[C@H](C2CC2)C[C@H](OCc2ccc(CO)cc2)O1,"2.82 µM [rising, partial curve]",
CCn1c(SCC(=O)Nc2cc(C)on2)nc2c(c1=O)SCC2,"12.6 µM [rising, partial curve, poor fit]",
Nc1nc(NCc2ccccc2Cl)n(-c2ccccc2)n1,"2 µM [falling, full curve, poor fit]",
COc1ccc2c(C)cc(=O)[nH]c2c1,"29.1 µM [falling, single point]",
CCN(CC)c1ccc2nc3ccccc3[n+](CC)c2c1,"15.8 µM [falling, single point]","14.1 µM [rising, partial curve, poor fit]"
